Source: PMC8797263
Results are given in words; binding and its absence hold for the method and conditions named. In cells and extracts the contact can be indirect. Some results given as binding are weak or reduced against the parent protein; the word gives no strength. Where a sequence is shown, tags or fusion partners need not be part of it. One block for each molecule: values may come before it.

By UniProt entry, the sequences of proteins in these tests, tags left out.
UniProt Q00519: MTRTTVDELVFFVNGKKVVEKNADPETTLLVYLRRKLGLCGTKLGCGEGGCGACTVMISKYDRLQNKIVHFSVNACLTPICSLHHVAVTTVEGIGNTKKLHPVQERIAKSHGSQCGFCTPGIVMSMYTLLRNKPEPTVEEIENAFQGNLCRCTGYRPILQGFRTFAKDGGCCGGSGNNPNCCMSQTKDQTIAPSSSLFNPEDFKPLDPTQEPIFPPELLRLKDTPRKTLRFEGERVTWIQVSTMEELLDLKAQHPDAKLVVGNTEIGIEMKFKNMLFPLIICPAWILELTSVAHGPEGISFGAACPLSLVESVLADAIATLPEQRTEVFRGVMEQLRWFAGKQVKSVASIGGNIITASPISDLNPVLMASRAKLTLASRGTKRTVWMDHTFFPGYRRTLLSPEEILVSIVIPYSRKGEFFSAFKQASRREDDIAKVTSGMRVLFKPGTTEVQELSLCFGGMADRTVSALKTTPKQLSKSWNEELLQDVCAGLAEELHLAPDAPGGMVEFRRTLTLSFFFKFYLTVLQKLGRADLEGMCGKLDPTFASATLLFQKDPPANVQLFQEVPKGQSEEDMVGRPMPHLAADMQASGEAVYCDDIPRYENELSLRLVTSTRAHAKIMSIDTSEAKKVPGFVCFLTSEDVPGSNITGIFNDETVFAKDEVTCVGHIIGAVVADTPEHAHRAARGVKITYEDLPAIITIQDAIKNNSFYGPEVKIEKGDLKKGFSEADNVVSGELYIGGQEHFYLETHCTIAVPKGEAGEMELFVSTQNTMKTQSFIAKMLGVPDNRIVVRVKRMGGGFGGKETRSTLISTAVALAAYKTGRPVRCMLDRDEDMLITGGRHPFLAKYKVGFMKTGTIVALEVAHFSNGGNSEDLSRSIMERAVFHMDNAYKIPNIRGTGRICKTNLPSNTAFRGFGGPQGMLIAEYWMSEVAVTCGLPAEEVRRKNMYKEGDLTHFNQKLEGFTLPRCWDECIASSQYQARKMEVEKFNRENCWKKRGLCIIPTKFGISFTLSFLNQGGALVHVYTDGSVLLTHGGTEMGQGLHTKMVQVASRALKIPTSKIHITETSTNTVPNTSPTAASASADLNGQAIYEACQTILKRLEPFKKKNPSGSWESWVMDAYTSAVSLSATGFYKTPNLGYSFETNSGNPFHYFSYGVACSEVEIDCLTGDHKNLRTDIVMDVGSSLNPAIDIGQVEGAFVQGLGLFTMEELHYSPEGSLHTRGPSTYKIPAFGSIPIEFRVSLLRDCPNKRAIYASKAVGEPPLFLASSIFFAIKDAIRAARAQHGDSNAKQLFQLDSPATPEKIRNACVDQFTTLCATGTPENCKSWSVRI

Target: T1, FLAG-OCLN (Occludin) (UniProt Q61146)
T1 sequence: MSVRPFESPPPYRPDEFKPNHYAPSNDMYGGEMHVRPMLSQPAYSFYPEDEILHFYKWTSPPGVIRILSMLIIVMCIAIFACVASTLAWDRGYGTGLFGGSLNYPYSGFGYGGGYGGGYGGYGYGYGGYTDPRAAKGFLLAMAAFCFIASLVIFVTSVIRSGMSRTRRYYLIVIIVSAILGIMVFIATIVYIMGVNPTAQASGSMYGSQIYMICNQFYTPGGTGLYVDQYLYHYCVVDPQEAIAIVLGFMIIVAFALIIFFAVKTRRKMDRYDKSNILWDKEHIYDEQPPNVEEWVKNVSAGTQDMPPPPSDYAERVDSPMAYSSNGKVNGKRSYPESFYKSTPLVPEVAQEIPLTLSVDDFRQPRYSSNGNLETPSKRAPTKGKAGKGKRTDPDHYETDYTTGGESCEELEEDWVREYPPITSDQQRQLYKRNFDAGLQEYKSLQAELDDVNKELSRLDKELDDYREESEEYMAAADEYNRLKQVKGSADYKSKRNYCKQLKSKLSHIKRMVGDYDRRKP
Assay: co-IP; 293T cells co-expressing FLAG-OCLN (or OCLN-ΔN / OCLN-ΔC) and HA-PLIN2/BTN1a1/XOR; lysis in 20 mM HEPES, 150 mM NaCl, 1% NP40; FLAG magnetic beads overnight at 4°C, 4 washes; western blot with anti-HA

- binding: binds
Molecule: HA-XOR (from UniProt Q00519 1-1335)

- binding: binds
B1: HA-BTN1a1 (protein, UniProt Q62556 27-524)
chain: AAPFDVTAPQEPVLALVGSDAELTCGFSPNASSEYMELLWFRQTRSTAVLLYRDGQEQEGQQMTEYRGRATLATAGLLDGRATLLIRDVRVSDQGEYRCLFKDNDDFEEAAVYLKVAAVGSDPQISMTVQENGEMELECTSSGWYPEPQVQWRTGNREMLPSTSESKKHNEEGLFTVAVSMMIRDSSIKNMSCCIQNILLGQGKEVEISLPAPFVPRLTPWIVAVAIILLALGFLTIGSIFFTWKLYKERSSLRKKEFGSKERLLEELRCKKTVLHEVDVTLDPDTAHPHLFLYEDSKSVRLEDSRQILPDRPERFDSWPCVLGRETFTSGRHYWEVEVGDRTDWAIGVCRENVVKKGFDPMTPDNGFWAVELYGNGYWALTPLRTSLRLAGPPRRVGVFLDYDAGDISFYNMSNGSLIYTFPSISFSGPLRPFFCLWSCGKKPLTICSTANGPEKVTVIANVQDDIPLSPLGEGCTSGDKDTLHSKLIPFSPSQAAP

- binding: no binding
B2: HA-PLIN2 (Perilipin-2) (protein, UniProt P43883 1-425)
chain: MAAAVVDPQQSVVMRVANLPLVSSTYDLVSSAYVSTKDQYPYLRSVCEMAEKGVKTVTSAAMTSALPIIQKLEPQIAVANTYACKGLDRMEERLPILNQPTSEIVASARGAVTGAKDVVTTTMAGAKDSVASTVSGVVDKTKGAVTGSVERTKSVVNGSINTVLGMVQFMNSGVDNAITKSELLVDQYFPLTQEELEMEAKKVEGFDMVQKPSNYERLESLSTKLCSRAYHQALSRVKEAKQKSQETISQLHSTVHLIEFARKNMHSANQKIQGAQDKLYVSWVEWKRSIGYDDTDESHCVEHIESRTLAIARNLTQQLQTTCQTVLVNAQGLPQNIQDQAKHLGVMAGDIYSVFRNAASFKEVSDGVLTSSKGQLQKMKESLDEVMDYFVNNTPLNWLVGPFYPQSTEVNKASLKVQQSEVKAQ
